The list shows only some results of the screen, not a fair sample: it gathers tests that were run many times, whatever their T/C, doses with no T/C, and many T/C values between a quarter and a half above the control. Other doses and runs of a compound stand elsewhere. T/C: endpoint of the treated group in % of that of the vehicle group. Some doses have a count of surviving animals in place of a T/C: the source holds a T/C of zero for them, seemingly a mark for toxic or unscored doses. Some survivor counts are full or nearly so, which does not show that the dose was tolerated: survival well below the control is almost never listed, so the zero probably covers shortened survival too. Counts of survivors are from the toxicity check (mostly the fifth day) where no day follows; animals may have died later. Schedule codes are those of the source, read here as Q, the interval in days (D) or hours (H), X, the number of doses. Some doses were run more than once; the values are given in rising order. Some schedules carry Z or #; the key to these is not given. Where survival is the endpoint, this PubChem deposit counts one and a half times the control or more as active, and values a quarter to a half above the control carry no call in these data; other NCI protocols may use other cut-offs. Some T/C values carry the count of animals alive at the toxicity check (mostly the fifth day); without a count, all were alive then.

The experiment relates to L1210 leukemia ip in BDF1 mice, survival T/C. The experiment is described as follows: NCI In Vivo Anticancer Drug Screen. Data for tumor model L1210 Leukemia (intraperitoneal) in B6D2F1 (BDF1) mice. The conditions noted are these: T/C endpoint: mean survival time, higher T/C = longer survival.
The mark [1] stands for this setting: dose: 400.0 mg/kg/injection, schedule: Q04DX003 (ip), vehicle: Klucel (hydroxypropylcellulose) (HPC).
The mark [2] stands for this setting: dose: 100.0 mg/kg/injection, schedule: Q01DX009 (ip), vehicle: Klucel (hydroxypropylcellulose) (HPC).
Where [3] appears, read: dose: 200.0 mg/kg/injection, schedule: Q01DX009 (ip), vehicle: Klucel (hydroxypropylcellulose) (HPC).
[4] abbreviates: dose: 400.0 mg/kg/injection, schedule: Q01DX009 (ip), vehicle: Klucel (hydroxypropylcellulose) (HPC).
Setting [5] is: dose: 100.0 mg/kg/injection, schedule: Q01DX009 (ip), vehicle: saline with Tween-80.
[6] abbreviates: dose: 200.0 mg/kg/injection, schedule: Q01DX009 (ip), vehicle: saline with Tween-80.
Setting [7] is: dose: 400.0 mg/kg/injection, schedule: Q01DX001 (ip), vehicle: other.
The mark [8] stands for this setting: dose: 200.0 mg/kg/injection, schedule: Q01DX001 (ip), vehicle: saline.
Where [9] appears, read: dose: 400.0 mg/kg/injection, schedule: Q01DX001 (ip), vehicle: saline.

Turning to `CSc1ncnc2nc[nH]c12`, the survivor count is, setting by setting: (dose: 25.0 mg/kg/injection, schedule: Q01DX010 (ip), vehicle: saline) 6 of 6; (dose: 50.0 mg/kg/injection, schedule: Q01DX010 (ip), vehicle: saline) 6 of 6; (dose: 100.0 mg/kg/injection, schedule: Q01DX Z (oral), vehicle: methylcellulose (MC)) 4 of 7; (dose: 200.0 mg/kg/injection, schedule: Q01DX010 (ip), vehicle: saline) 6 of 6; (dose: 200.0 mg/kg/injection, schedule: Q01DX Z (oral), vehicle: methylcellulose (MC)) 3 of 7; (dose: 225.0 mg/kg/injection, schedule: Q#A X Z (ip), vehicle: carboxymethylcellulose (CMC)) 2 of 6. For the same compound, the survivor count is, setting by setting: (dose: 350.0 mg/kg/injection, schedule: Q01DX Z (ip), vehicle: carboxymethylcellulose (CMC)) 0 of 6; (dose: 400.0 mg/kg/injection, schedule: Q01DX001 (ip), vehicle: carboxymethylcellulose (CMC)) 0 of 10 and 1 of 10; (dose: 400.0 mg/kg/injection, schedule: Q01DX Z (oral), vehicle: methylcellulose (MC)) 1 of 7; (dose: 450.0 mg/kg/injection, schedule: Q01DX Z (ip), vehicle: carboxymethylcellulose (CMC)) 0 of 6; (dose: 600.0 mg/kg/injection, schedule: Q01DX001 (ip), vehicle: carboxymethylcellulose (CMC)) 0 of 10; (dose: 600.0 mg/kg/injection, schedule: Q03DX Z (ip), vehicle: saline) 3 of 6. Moreover, the survivor count is, setting by setting: (dose: 800.0 mg/kg/injection, schedule: Q01DX Z (oral), vehicle: methylcellulose (MC)) 0 of 7; (dose: 1000.0 mg/kg/injection, schedule: Q01DX001 (ip), vehicle: methylcellulose (MC)) 1 of 6; (dose: 1500.0 mg/kg/injection, schedule: Q01DX001 (ip), vehicle: carboxymethylcellulose (CMC)) 3 of 6; (dose: 2000.0 mg/kg/injection, schedule: Q01DX001 (ip), vehicle: carboxymethylcellulose (CMC)) 2 of 6; (dose: 2500.0 mg/kg/injection, schedule: Q01DX001 (ip), vehicle: carboxymethylcellulose (CMC)) 1 of 6. Also, the T/C is 126 % of control [5 of 6 alive] (dose: 100.0 mg/kg/injection, schedule: Q#A X Z (ip), vehicle: saline); 125 % of control [4 of 6 alive] (dose: 175.0 mg/kg/injection, schedule: Q#A X Z (ip), vehicle: carboxymethylcellulose (CMC)); 135 % of control [5 of 6 alive] (dose: 500.0 mg/kg/injection, schedule: Q01DX001 (ip), vehicle: methylcellulose (MC)).
Consider `C=C(C)C(=O)Nc1c(C)cccc1C`, for which the survivor count under setting [1] was 6 of 6.
On to `COc1cc(C2=N/C(=C\c3cccc([N+](=O)[O-])c3)C(=O)O2)cc(OC)c1OC`, for which the survivor count by setting is: (dose: 200.0 mg/kg/injection, schedule: Q04DX002 (ip), vehicle: saline with Tween-80) 3 of 3; (dose: 400.0 mg/kg/injection, schedule: Q04DX002 (ip), vehicle: saline with Tween-80) 3 of 3.
In the case of `CCCc1c2cc(OC)c(OC)cc2cc2c3cc(OC)c(OC)cc3cc[n+]12` (tested in a mixture with another compound), the survivor count is, setting by setting: under setting [2], 4 of 6; under setting [3], 0 of 6; under setting [1], 3 of 6.
`O=C(Nc1ncccc1[N+](=O)[O-])C(Cl)(Cl)Cl`: the survivor count under setting [4] is given as 2 of 3.
In the case of `COc1ccc(C(=O)Nc2ccccc2)cc1NC(=S)Nc1ccccc1`, the survivor count (dose: 400.0 mg/kg/injection, schedule: Q04DX002 (ip), vehicle: Klucel (hydroxypropylcellulose) (HPC)) was 3 of 3.
In the case of `O=C(/C=C/c1ccccc1)NC(=S)Nc1cccc2ccccc12`, the T/C under setting [5] was 94 and 95 % of control [5 of 6 alive]. For the same compound, the survivor count is, setting by setting: under setting [5], 1 of 3 and 2 of 3; under setting [6], 0 of 3, 1 of 3, 2 of 6; (dose: 400.0 mg/kg/injection, schedule: Q01DX009 (ip), vehicle: saline with Tween-80) 0 of 3 and 0 of 6.
On to `CC(=O)NC1C(OC(C)=O)OC(COC(c2ccccc2)(c2ccccc2)c2ccccc2)C(OS(C)(=O)=O)C1OC(C)=O` (centres undefined), for which the survivor count (dose: 200.0 mg/kg/injection, schedule: Q04DX003 (ip), vehicle: saline with Tween-80) was 3 of 3.
Consider `Cc1ccc2c(c1)C=C/C(=C/c1cc[n+](C)c3ccccc13)N2C`, for which, under setting [7], the survivor count is on record as 1 of 4.
As to `CCCCCCCCCCCCCCCCCCNC(=S)N/N=C/c1ccc(Cl)cc1Cl`, the survivor count reads like this: (dose: 100.0 mg/kg/injection, schedule: Q01DX001 (ip), vehicle: other) 6 of 6; under setting [7], 6 of 6.
As to `NC(N)=N/N=C/CN1C(=O)c2ccccc2C1=O`, the survivor count (dose: 240.0 mg/kg/injection, schedule: Q01DX Z (ip), vehicle: methylcellulose (MC)) was 0 of 6; the survivor count (dose: 360.0 mg/kg/injection, schedule: Q01DX Z (ip), vehicle: methylcellulose (MC)) was 0 of 6; the survivor count (dose: 480.0 mg/kg/injection, schedule: Q01DX Z (ip), vehicle: methylcellulose (MC)) is 0 of 6; the survivor count (dose: 600.0 mg/kg/injection, schedule: Q01DX Z (oral), vehicle: methylcellulose (MC)) is on record as 2 of 6; the survivor count (dose: 720.0 mg/kg/injection, schedule: Q01DX Z (oral), vehicle: methylcellulose (MC)) is 1 of 6; the survivor count (dose: 840.0 mg/kg/injection, schedule: Q01DX Z (oral), vehicle: methylcellulose (MC)) is given as 0 of 6.
Regarding `Cc1ccc(S(=O)(=O)NC(=O)N(CCCl)N=O)cc1`, the T/C (dose: 20.0 mg/kg/injection, schedule: Q01DX001 (ip), vehicle: other) is 144 % of control. Besides, the survivor count by setting is: (dose: 250.0 mg/kg/injection, schedule: Q01DX001 (ip), vehicle: other) 6 of 6; (dose: 375.0 mg/kg/injection, schedule: Q01DX001 (ip), vehicle: other) 2 of 6; (dose: 500.0 mg/kg/injection, schedule: Q01DX001 (ip), vehicle: other) 0 of 6; (dose: 750.0 mg/kg/injection, schedule: Q01DX001 (ip), vehicle: other) 0 of 6; (dose: 1000.0 mg/kg/injection, schedule: Q01DX001 (ip), vehicle: other) 0 of 6.
In the case of `O=c1cc(-c2ccc(Cl)cc2)oc(-c2ccc(Cl)cc2)c1`, the survivor count by setting is: under setting [3], 6 of 6; under setting [1], 5 of 6.
With `Cc1cnc2c(N)[nH]nc2n1`, the survivor count under setting [2] was 3 of 6.
With `FC(F)(F)C(F)(F)C(F)(F)c1nc2nc(Cl)c(Cl)nc2[nH]1`, the survivor count by setting is: under setting [5], 2 of 6 and 3 of 6; under setting [6], 0 of 6; (dose: 400.0 mg/kg/injection, schedule: Q04DX003 (ip), vehicle: saline with Tween-80) 1 of 6.
`CN(C)c1ccc(C(O)C(N)=O)cc1` (centres undefined): the survivor count is 0 of 6 (dose: 100.0 mg/kg/injection, schedule: Q01DX001 (ip), vehicle: saline); 0 of 6 under setting [8]; 0 of 6 under setting [9].
Consider `O=C(Cl)c1c(Cl)c(Cl)c(C(=O)Cl)c(Cl)c1Cl`, for which the survivor count is 4 of 6 (dose: 100.0 mg/kg/injection, schedule: Q01DX009 (ip), vehicle: saline); 6 of 6 (dose: 200.0 mg/kg/injection, schedule: Q04DX003 (ip), vehicle: saline); 6 of 6 (dose: 400.0 mg/kg/injection, schedule: Q04DX003 (ip), vehicle: saline).
On to `CC(C)=CCN(CC=C(C)C)CCC(C#N)(CCN(CC=C(C)C)CC=C(C)C)c1cccc2ccccc12`, for which the survivor count is, setting by setting: under setting [3], 0 of 6; under setting [4], 0 of 6.
Regarding `ClCCN(CC#CCCCC#CCN(CCCl)CCCl)CCCl`, the survivor count runs as follows: under setting [8], 3 of 6; under setting [9], 0 of 6.
